# Data from article doi:10.1101/238709.
# Chains of the proteins cited; added tags and fusions are not shown. Lines headed by an entry give the natural chain unless they say otherwise; changes in a name come on top.
# UniProt Q9UBB5: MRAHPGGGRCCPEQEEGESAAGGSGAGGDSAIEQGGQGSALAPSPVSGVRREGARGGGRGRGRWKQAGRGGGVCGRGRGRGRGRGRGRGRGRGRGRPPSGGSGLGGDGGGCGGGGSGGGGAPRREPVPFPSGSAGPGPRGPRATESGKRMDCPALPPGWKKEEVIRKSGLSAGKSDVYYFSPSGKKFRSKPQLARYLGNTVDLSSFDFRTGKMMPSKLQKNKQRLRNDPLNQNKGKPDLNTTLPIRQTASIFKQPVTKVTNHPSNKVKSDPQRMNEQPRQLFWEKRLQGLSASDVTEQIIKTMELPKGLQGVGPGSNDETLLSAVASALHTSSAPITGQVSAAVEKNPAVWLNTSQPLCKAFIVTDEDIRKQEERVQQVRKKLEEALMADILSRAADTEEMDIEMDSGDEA
# UniProt O95983: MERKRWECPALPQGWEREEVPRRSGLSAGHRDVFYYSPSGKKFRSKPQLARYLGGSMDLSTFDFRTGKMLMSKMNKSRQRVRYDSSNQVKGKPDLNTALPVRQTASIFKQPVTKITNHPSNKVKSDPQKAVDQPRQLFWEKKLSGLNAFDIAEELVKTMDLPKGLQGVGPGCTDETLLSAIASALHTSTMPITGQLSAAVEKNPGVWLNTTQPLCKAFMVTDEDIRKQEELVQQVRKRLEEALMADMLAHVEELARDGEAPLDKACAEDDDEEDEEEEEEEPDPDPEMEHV
# UniProt Q9Y5B9: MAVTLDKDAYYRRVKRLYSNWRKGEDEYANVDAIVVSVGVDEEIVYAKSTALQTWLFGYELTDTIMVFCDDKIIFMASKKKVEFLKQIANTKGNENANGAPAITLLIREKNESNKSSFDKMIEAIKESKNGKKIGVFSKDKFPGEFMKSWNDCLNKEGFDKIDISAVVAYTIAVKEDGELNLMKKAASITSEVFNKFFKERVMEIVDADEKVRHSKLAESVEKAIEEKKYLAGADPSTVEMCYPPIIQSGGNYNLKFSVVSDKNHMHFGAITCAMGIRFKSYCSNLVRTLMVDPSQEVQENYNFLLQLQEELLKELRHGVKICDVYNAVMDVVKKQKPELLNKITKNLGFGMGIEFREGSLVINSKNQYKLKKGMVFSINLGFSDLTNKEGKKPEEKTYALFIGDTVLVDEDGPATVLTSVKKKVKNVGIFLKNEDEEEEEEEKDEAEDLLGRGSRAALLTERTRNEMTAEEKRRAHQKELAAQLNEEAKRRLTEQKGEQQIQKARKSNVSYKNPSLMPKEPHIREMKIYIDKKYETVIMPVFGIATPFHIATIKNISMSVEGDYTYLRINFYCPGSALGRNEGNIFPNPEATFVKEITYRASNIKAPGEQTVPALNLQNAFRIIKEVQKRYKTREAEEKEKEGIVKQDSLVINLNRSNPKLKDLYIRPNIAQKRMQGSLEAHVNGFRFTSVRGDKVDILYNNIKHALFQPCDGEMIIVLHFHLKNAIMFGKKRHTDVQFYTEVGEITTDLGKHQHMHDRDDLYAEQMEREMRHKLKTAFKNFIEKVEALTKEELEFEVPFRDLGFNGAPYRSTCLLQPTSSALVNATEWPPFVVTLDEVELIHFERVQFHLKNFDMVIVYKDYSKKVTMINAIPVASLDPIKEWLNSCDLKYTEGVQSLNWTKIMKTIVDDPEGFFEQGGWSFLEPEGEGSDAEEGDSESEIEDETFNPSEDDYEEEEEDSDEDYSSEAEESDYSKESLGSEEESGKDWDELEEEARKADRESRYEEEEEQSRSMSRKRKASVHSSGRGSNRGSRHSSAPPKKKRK
# UniProt Q9NPF5: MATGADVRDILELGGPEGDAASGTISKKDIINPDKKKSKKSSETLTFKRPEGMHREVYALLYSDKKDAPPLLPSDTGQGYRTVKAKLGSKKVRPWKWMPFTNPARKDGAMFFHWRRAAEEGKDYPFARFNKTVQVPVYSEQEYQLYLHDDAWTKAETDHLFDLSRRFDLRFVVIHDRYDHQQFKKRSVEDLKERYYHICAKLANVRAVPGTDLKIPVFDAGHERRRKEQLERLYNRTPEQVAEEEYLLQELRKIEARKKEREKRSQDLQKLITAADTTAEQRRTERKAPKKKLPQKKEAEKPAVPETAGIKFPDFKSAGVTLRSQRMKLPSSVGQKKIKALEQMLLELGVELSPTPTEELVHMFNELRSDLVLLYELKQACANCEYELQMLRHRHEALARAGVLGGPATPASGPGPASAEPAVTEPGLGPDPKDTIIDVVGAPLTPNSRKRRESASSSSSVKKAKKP
# UniProt Q92830: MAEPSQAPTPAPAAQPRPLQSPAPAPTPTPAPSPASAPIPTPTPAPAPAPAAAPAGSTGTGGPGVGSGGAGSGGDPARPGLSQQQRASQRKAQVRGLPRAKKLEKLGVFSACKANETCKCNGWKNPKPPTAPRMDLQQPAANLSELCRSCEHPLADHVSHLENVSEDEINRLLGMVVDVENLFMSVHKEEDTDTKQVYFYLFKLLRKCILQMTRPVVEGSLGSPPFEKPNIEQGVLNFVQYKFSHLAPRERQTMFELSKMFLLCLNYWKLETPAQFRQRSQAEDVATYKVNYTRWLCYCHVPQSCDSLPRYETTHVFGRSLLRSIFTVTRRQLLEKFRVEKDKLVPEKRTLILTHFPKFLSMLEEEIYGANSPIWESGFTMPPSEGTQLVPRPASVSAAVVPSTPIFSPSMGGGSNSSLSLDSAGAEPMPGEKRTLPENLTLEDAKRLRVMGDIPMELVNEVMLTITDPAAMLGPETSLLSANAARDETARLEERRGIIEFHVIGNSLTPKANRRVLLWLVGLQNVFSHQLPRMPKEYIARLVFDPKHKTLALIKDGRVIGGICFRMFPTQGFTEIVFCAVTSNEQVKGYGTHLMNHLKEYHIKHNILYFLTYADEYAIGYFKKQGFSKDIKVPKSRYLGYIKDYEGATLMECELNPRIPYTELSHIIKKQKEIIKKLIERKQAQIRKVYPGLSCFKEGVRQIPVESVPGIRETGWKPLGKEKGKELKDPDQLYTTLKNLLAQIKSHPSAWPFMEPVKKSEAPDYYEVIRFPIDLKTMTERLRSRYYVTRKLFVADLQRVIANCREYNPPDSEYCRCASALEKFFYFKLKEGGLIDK
# UniProt Q9BQA1: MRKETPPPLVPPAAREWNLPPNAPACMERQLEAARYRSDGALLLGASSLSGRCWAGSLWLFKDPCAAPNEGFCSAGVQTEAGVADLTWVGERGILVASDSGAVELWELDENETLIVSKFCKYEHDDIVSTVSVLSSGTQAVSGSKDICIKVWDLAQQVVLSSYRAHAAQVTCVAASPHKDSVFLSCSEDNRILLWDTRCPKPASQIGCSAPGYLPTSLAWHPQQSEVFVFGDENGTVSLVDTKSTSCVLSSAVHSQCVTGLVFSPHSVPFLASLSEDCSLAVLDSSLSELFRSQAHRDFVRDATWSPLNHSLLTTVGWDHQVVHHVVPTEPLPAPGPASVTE
# These are yes or no findings as the source states them, for the method shown. In cells and extracts the contact can be indirect. Some entries that bind do so weakly or less than the wild type. For part of these data: Tags and fused reporters may be left off the sequences shown.
# Legend:
# Assay in all cases: co-IP
# FLAG-tagged C/EBPβ = molecular target: T1, FLAG-tagged C/EBPβ (UniProt Q05826)
# T1 sequence: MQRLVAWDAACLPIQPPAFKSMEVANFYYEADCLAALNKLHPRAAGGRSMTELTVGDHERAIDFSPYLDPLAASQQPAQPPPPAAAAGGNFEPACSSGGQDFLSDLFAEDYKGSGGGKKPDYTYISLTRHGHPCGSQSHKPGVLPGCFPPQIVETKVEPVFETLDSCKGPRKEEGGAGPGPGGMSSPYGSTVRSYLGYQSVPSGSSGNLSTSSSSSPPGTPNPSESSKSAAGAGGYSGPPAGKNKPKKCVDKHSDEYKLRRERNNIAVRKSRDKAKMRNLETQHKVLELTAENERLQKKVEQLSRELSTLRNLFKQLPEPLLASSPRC
# [1] = molecular target: T2, wild-type (WT) C/EBPβ (chicken) (UniProt Q05826)
# T2 sequence: T1 sequence
# FLAG-tagged LAP* C/EBPβ = molecular target: T3, FLAG-tagged LAP* C/EBPβ (UniProt Q05826)
# T3 sequence: T1 sequence
# MBD2 (HA-tagged) = MBD2 (HA-tagged) (UniProt Q9UBB5)
# MBD3 (GFDP-tagged) = MBD3 (GFDP-tagged) (UniProt O95983)
substance,measurement,setting,value
FACT complex (GFP-tagged Spt16 and SSRP1) (from UniProt Q9Y5B9 1-1047; Q08945 1-709),binding,FLAG-tagged C/EBPβ,binds
DNA methyltransferase-associated protein DMAP1 (from UniProt Q9NPF5 1-467),binding,[1],binds
same,binding,FLAG-tagged LAP* C/EBPβ,binds
histone acetyltransferase GCN5 (from UniProt Q92830 1-837),binding,FLAG-tagged LAP* C/EBPβ,binds
WDR77(MEP50)/PRMT5 sub-module (from UniProt Q9BQA1 1-342; O14744 1-637) (complex),binding,MBD2 (HA-tagged),binds
same,binding,MBD3 (GFDP-tagged),no binding
